This experiment relates to MDA-MB-231. Kind of experiment: Cytotoxicity MTT/MTS assay, MDA-MB-231. In kind it is cell-based. To be noted: MDA-MB-231 (TNBC) cells. The source says:
FIG. 4A-C depicts the cytotoxicity of PDoxC, obtained by […], for three cell lines (MDA-MB-231 [FIG. 4A], MDA-MB-468 [FIG. 4B], and MCF-10A [FIG. 4C]). Cell viability is plotted against drug concentration (PDoxC or Dox) to obtain IC50 values. Each experimental point was done in duplicates or triplicates and the experiment was repeated once.
Next, the cytotoxicity of the peptide 31 PDoxC was compared to the DOX (free drug) using MTS assay (FIG. 4A-C). Three cell lines were used, two TNBC cell lines (MDA-MB-231 and MDA-MB-468) and one non-cancerous mammary epithelial MCF-10A cell line. […] This peptide 31 PDoxC is very promising as this level of selectivity has never been observed with previously reported peptide-drug conjugates.

With `COc1cccc2c1C(=O)c1c(O)c3c(c(O)c1C2=O)C[C@@](O)(C(=O)CO)C[C@@H]3O[C@H]1C[C@H](N)[C@H](O)[C@H](C)O1` [Free Dox, doxorubicin, reference compound], the concentration for half-maximal inhibition (IC50) worked out at 1870 nM.

The record behind these values is patent US20240100178A1, “EGFR TARGETING PEPTIDE CONJUGATE” (Chapman University, priority 2022, published 2024).
